From patent US5622828
Construct, isoform or probe ends are uncertain for at least one entry.

Molecular target: T1, secretory phospholipase A2 (sPLA2) (Homo sapiens) (UniProt P14555)
T1 sequence: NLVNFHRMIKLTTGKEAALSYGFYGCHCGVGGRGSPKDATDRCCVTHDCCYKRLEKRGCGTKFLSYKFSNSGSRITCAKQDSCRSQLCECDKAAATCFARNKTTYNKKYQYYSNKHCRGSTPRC
Experiment: inhibition of the protein
Settings: inhibits sPLA2 enzymatic activity, purified recombinant protein, protein details: supplied by Eli Lilly, dose not given here

[1] = 2'-NH2 all C and U, variant of NN19

Sequence: GGGAAAAGAAGACCGGCCGGCGCCAUAGCCGAGAUCCGAGGUGUUGAGACCAACCGAGAA [NN19.13]
- functional effect of the aptamer [1]: active

Sequence: GGGAAAAGAAGACCGGCCGGCGCCAUAGCCGAGAUCCGAGGUGUUGAACGAUCCGAGAA [NN19.14]
- functional effect of the aptamer [1]: active

Sequence: GGGAGCUCAGAAUAAACGCUCAAGCUCUGGGAUGAUGCCCACUGUCCAGCAUCUUCGACAUGAGGCCCGGAUCCGGC [87F]
- functional effect of the aptamer (2'-F all C and U, variant of 87): active

Sequence: GGGAAAAGAAGACCGGCCGGCGCCAUAGCCGAGAUCCGAGGUGUUGAACGAUAGACCAACCGAGAA [NN19.11]
- functional effect of the aptamer [1]: active

Sequence: GGGAGCUCAGAAUAAACGCUCAACGCCUCAUGCCAAUGCGGGAGGGUGGGUGGUUCGACAUGAGGCCCGGAUCCGGC [86t]
- functional effect of the aptamer (printed 861): active

Sequence: GGGAAAAGAAGACCGGCCGGCGCCAUAGCCGAGAUCCGAGGUGUUGCCGAGAA [NN19.15]
- functional effect of the aptamer (2'-NH2 all C and U, Example 7: dose-dependent inhibition of PLA2-induced contraction of guinea pig lung pleural strips, variant of NN19): active

Sequence: GGGAGCUCAGAAUAAACGCUCAAGCUCUGGGAUGAUGCCCACUGUCCAGCAUCUUCGACAUGUGUAGCUAAACAGCUUUAGGA [87.7]
- functional effect of the aptamer (variant of 87): active

Sequence: GGGAGCUCAGAAUAAACGCUCAAGCUCUGGGAUGAUGCCCACUGUCCAGCAUCUUCGACAUGAGGCCCGGAUCCGGC [87]
- functional effect of the aptamer: active
